This passage reports binding results from doi:10.1101/2021.12.08.471779.

Protein sequences, listed by entry. Tags and fused reporters are not part of them. Lines headed by an entry give the natural chain unless they say otherwise; changes in a name come on top.
UniProt P02929, whole entry, looked up, stated change not applied: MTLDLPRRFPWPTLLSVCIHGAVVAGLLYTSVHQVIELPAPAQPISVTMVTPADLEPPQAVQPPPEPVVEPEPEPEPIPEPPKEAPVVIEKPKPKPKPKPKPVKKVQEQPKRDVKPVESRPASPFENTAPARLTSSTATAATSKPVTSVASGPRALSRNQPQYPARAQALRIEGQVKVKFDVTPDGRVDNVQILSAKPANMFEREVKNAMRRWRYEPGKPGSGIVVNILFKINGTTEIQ

Substitutions are numbered along the chain they refer to. These are yes or no findings as the source states them, for the method shown. Binding seen in cells or lysates may run through a third protein. Some results given as binding are weak or reduced against the parent protein; the word gives no strength.

Common to all, as to experiment: cross-linking
Assay [1] concerns the target T1, FepA G54C (Escherichia coli K-12) (UniProt P05825).
T1 sequence: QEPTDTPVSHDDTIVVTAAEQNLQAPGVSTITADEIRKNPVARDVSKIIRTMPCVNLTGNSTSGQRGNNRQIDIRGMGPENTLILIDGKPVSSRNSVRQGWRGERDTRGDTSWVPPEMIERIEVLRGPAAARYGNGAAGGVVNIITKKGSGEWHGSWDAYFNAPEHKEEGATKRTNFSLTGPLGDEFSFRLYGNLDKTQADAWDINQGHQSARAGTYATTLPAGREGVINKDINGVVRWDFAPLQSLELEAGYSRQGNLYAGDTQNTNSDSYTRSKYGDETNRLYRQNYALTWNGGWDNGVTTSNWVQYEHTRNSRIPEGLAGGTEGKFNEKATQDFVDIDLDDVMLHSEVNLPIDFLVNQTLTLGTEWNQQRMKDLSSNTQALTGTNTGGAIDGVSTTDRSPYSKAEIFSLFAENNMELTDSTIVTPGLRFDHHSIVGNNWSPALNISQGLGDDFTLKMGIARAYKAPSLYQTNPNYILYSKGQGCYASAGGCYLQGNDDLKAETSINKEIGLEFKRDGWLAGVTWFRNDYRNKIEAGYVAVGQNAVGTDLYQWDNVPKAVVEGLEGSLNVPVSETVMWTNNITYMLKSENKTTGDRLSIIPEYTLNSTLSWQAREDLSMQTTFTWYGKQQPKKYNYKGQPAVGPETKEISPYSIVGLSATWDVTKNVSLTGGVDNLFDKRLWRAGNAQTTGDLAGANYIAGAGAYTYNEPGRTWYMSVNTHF

Assay [2] deals with T2, FepA T17C (Escherichia coli K-12) (UniProt P05825).
T2 sequence: T1 sequence with T17C, C54G

For assay [3], the target named is T3, FepA D185C (Escherichia coli K-12) (UniProt P05825).
T3 sequence: T1 sequence with C54G, D185C

With “TonB C18G A209C (from UniProt P02929 1-239)”, the binding entry in assay [1], in assay [2] and in assay [3] was “no binding” each time.
Turning to “TonB C18G H20A A209C (from UniProt P02929 1-239)”, in assay [2], the binding entry is given as “no binding”.
In the case of “TonB C18G H20A Q160C (from UniProt P02929 1-239)”, the binding entry in assay [2] is “binds”.
“TonB C18G H20A R204C (from UniProt P02929 1-239)”: the binding entry in assay [2] is given as “no binding”.
Turning to “TonB C18G H20A R212C (from UniProt P02929 1-239)”, the binding result in assay [2] is listed as “no binding”.
On to “TonB C18G H20A V206C (from UniProt P02929 1-239)”, for which the binding result in assay [2] is reported as “no binding”.
Consider “TonB C18G M201C (from UniProt P02929 1-239)”, for which the binding entry in assay [1] and in assay [3] was “no binding” in each case.
As to “TonB C18G N208C (from UniProt P02929 1-239)”, the binding result in assay [1], in assay [2] and in assay [3] was “no binding” throughout.
As to “TonB C18G Q160C (from UniProt P02929 1-239)”, the binding result in assay [1] is given as “binds weakly”; in assay [2], “binds”; in assay [3], “no binding”.
Turning to “TonB C18G R204C (from UniProt P02929 1-239)”, the binding entry in assay [1] is “no binding”; in assay [2] it was “binds”; in assay [3], “no binding”.
For “TonB C18G R212C (from UniProt P02929 1-239)”, the binding result in assay [1] is given as “no binding”; in assay [2], “binds”; in assay [3], “no binding”.
For “TonB C18G R214C (from UniProt P02929 1-239)”, the binding result in assay [1] and in assay [3] was “no binding” in each case.
Turning to “TonB C18G V206C (from UniProt P02929 1-239)”, the binding result in assay [1], in assay [2] and in assay [3] was “no binding” throughout.
